Assay results taken from paper PMC7819943, “Rice protein-binding microarrays: a tool to detect cis-acting elements near promoter regions in rice”.
The other results are listed elsewhere or left out.

These sequences were tested against T1, OsSMF1 (Oryza sativa, UniProt Q6ZLB0 1-436) (assay: protein-binding microarray (RPBM); PBS, 2% BSA, 51.3 ng/ul salmon testes DNA, 50 uM zinc acetate, 200 nM TF, 25 C, 1 h; high values mean tight binding). Conditions: protein: recombinant; tags: N-terminal polyhistidine and DsRed monomer fusion (pET32a); chain copies: 2; label: CyDye5-dUTP incorporated in the synthesized complementary strand; 3' TTTTT single-stranded linker to array surface; dsDNA, one strand shown.
T1 sequence: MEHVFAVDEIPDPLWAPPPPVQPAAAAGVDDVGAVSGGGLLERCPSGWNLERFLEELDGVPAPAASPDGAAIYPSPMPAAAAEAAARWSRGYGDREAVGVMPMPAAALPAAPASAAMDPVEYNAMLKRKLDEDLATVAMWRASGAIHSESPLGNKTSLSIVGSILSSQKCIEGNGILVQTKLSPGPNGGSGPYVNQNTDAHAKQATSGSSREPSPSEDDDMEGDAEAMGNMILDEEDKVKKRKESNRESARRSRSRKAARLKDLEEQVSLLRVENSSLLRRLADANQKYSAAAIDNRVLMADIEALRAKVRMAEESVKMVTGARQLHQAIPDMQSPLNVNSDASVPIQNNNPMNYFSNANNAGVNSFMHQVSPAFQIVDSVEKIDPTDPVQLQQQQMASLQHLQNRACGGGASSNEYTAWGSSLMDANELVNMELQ
Method in brief: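 A custom Agilent array was converted to double-stranded form by primer extension with Cy5-dUTP and blocked with 2% BSA. Protein at 200 nM in PBS with 2% BSA, salmon testes DNA and 50 µM zinc acetate was applied for 1 h at 25 °C, followed by washing. The proteins were polyhistidine–DsRed N-terminal fusions of transcription factors, expressed in E. coli BL21-CodonPlus and Ni–NTA-purified. The binding signal is per-feature fluorescence intensity (arbitrary units) from an Axon 4000B scanner.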
In the case of “TTGAATCCTCATCATCATCGCCTTAATTGCATCGGTTAATCGGAGTCACCTAGTGCAG”, the binding signal is reported as 3240 fluorescence intensity (a.u.).
For “ACTCATGCGGCCTTGGGAGTTCAGGGTGCAATGACGCATACGGAGTCACCTAGTGCAG”, the binding signal was 4820 fluorescence intensity (a.u.).
In the case of “CCAAGCCTTCTGCTTGTGATTTGAACCTTCAGTGGGTACCCGGAGTCACCTAGTGCAG”, the binding signal is reported as 24300 fluorescence intensity (a.u.).
In the case of “TTAACTTCAACAGCCCAACCCACGGTAGCTCTTTTAGGTGCGGAGTCACCTAGTGCAG”, the binding signal is reported as 24400 fluorescence intensity (a.u.).
“CTAACACGTGACACACAGCGGGCACGTCACCCAAACGGGCCGGAGTCACCTAGTGCAG” was tested, and the binding signal was 13900 fluorescence intensity (a.u.).
In the case of “ATCTCGCCTCCACGTCCTCGTCGCTCACAACGCGACACACCGGAGTCACCTAGTGCAG”, the binding signal is reported as 6670 fluorescence intensity (a.u.).
With “CCTCCCCTGGTGAGAGAGAGCATAGTCACTACACCAACACCGGAGTCACCTAGTGCAG” the binding signal was 3200 fluorescence intensity (a.u.).
“ACCGGCTGCCTCTGTCGACACGCCGCCAGCCTGCAGCCGTCGGAGTCACCTAGTGCAG” was tested, and the binding signal was 4370 fluorescence intensity (a.u.).
In the case of “CCTCCCGCCACGGTCACTACACACGTCGTAGTAGTGTAGTCGGAGTCACCTAGTGCAG”, the binding signal is reported as 4000 fluorescence intensity (a.u.).
With “TCATCAATTCCGGTGAGGATATCGCCGGATCGACGCGCCGCGGAGTCACCTAGTGCAG” the binding signal was 26300 fluorescence intensity (a.u.).
With “GACAGAATTAGCCCACGTGACAGGGCATAATTAATATATACGGAGTCACCTAGTGCAG” the binding signal was 3320 fluorescence intensity (a.u.).
“CTCTACGTACACGAAACTTCCAACACGTAGTCGCCTTAACCGGAGTCACCTAGTGCAG” was tested, and the binding signal was 4020 fluorescence intensity (a.u.).
For “GAGGGAAAGAGATGCAAATTGCACCCTTCATGAATCATCCCGGAGTCACCTAGTGCAG”, the binding signal was 11000 fluorescence intensity (a.u.).
For “GGTGCGGCCCATGACTCGGCCCAGTTCTGTGTTAGGCCTCCGGAGTCACCTAGTGCAG”, the binding signal was 3880 fluorescence intensity (a.u.).
“TGGAGTAAACGATGAATACATGTTATAATAGTGTAGATTGCGGAGTCACCTAGTGCAG” was tested, and the binding signal was 65100 fluorescence intensity (a.u.).
“CCACCACAGGCTGACGCCCGCGCCGGCCACAGCTAGCGCGCGGAGTCACCTAGTGCAG” was tested, and the binding signal was 3170 fluorescence intensity (a.u.).
“CGCCCTCATCTTTGTATGACTCATACACACTGCCCATCAGCGGAGTCACCTAGTGCAG” was tested, and the binding signal was 10500 fluorescence intensity (a.u.).
For “TGGGCTCGTGTTAAGGAGTGATAATTCTTGACGATAAACTCGGAGTCACCTAGTGCAG”, the binding signal was 3650 fluorescence intensity (a.u.).
For “CACCGCCGCCGCCCAACTCCAATTCTTCCACCGCTTGTGTCGGAGTCACCTAGTGCAG”, the binding signal was 3350 fluorescence intensity (a.u.).
In the case of “CCACCTCTAATGAAGAGGTGATTGCAACCATTCATCTCTTCGGAGTCACCTAGTGCAG”, the binding signal is reported as 3680 fluorescence intensity (a.u.).
In the case of “GCGACGGTGTTCGACGACAACTACGTGGCAACATATGGTGCGGAGTCACCTAGTGCAG”, the binding signal is reported as 6540 fluorescence intensity (a.u.).
With “ATCAACGGTGAGATTATAGCATGCCACGTGGCAACCTAAGCGGAGTCACCTAGTGCAG” the binding signal was 30400 fluorescence intensity (a.u.).
In the case of “CGCCATCGATGCGTGACCACCGAGCTCGCCTCGTCCACACCGGAGTCACCTAGTGCAG”, the binding signal is reported as 3250 fluorescence intensity (a.u.).
With “ACCCACATGTCATTGACTCATATGGGTCATACATGTCATTCGGAGTCACCTAGTGCAG” the binding signal was 9460 fluorescence intensity (a.u.).
For “ACGGATCACGTACACATGCGTACGTGTCTCATCCCCGGACCGGAGTCACCTAGTGCAG”, the binding signal was 9710 fluorescence intensity (a.u.).
For “GCCGCTTCTTCCGCGCATGCGTCGTGATCTCACGTCCTCTCGGAGTCACCTAGTGCAG”, the binding signal was 3680 fluorescence intensity (a.u.).
In the case of “TTGTCTAACGTGGTGCACGCGTGGCAATCCAGTTAGCATTCGGAGTCACCTAGTGCAG”, the binding signal is reported as 10500 fluorescence intensity (a.u.).
In the case of “GGATCCTTTGACATGTAGATGCCACCGTGGCATGCCACGTCGGAGTCACCTAGTGCAG”, the binding signal is reported as 13900 fluorescence intensity (a.u.).
With “CGCTGGGCGATGCCACGTCGGATAGGAACAGTGCGCGGAGCGGAGTCACCTAGTGCAG” the binding signal was 13300 fluorescence intensity (a.u.).
“TAGTTACTTAGTGCATGGGCATCCCACGTCTGTGTGCATGCGGAGTCACCTAGTGCAG” was tested, and the binding signal was 4750 fluorescence intensity (a.u.).
With “CGTTGGCGTCCACCACGGCCACCGCCACGCCGCTCGTGTTCGGAGTCACCTAGTGCAG” the binding signal was 4420 fluorescence intensity (a.u.).
With “GTTCGCCTCTGCCATTCTCCCCTGATGGCAGAGGATGCGACGGAGTCACCTAGTGCAG” the binding signal was 3150 fluorescence intensity (a.u.).
In the case of “AGCCGGTGAGCCGCTCATCGGCGGTCGTACGTCATCGCTACGGAGTCACCTAGTGCAG”, the binding signal is reported as 6340 fluorescence intensity (a.u.).
In the case of “ATTGATATGTAGGGTCGATCGCGTGCTTTCAGTCTAGCTGCGGAGTCACCTAGTGCAG”, the binding signal is reported as 3180 fluorescence intensity (a.u.).
In the case of “CCACTATAATGCCACGTCACTAAATCCCATCCAACATCAACGGAGTCACCTAGTGCAG”, the binding signal is reported as 16400 fluorescence intensity (a.u.).
For “ACGTTCTTGAGTGACATGTTATGTACACATATATTCCTTTCGGAGTCACCTAGTGCAG”, the binding signal was 3530 fluorescence intensity (a.u.).
In the case of “GGCGGTGATGCTTGTCTTCGTCATCGTCCACATCTCGTTGCGGAGTCACCTAGTGCAG”, the binding signal is reported as 9550 fluorescence intensity (a.u.).
In the case of “AAGGAGGAGAAGCAGCAAACGCGGCCGCACCCAGCGTCCACGGAGTCACCTAGTGCAG”, the binding signal is reported as 3850 fluorescence intensity (a.u.).
With “TGGCCCATCCATCCATCTATCGGCCCAATATGACTCAGCTCGGAGTCACCTAGTGCAG” the binding signal was 6870 fluorescence intensity (a.u.).
With “ATTGTTAGCCGTGAGCCCGTGACTCAACTTATATCGAAGCCGGAGTCACCTAGTGCAG” the binding signal was 5480 fluorescence intensity (a.u.).
With “GTGGGGAGGGTAAAAGAAACGTACCAACACACATTTATAGCGGAGTCACCTAGTGCAG” the binding signal was 26700 fluorescence intensity (a.u.).
For “TACTGATAGCCTTGATGTCATGCATTGAAAATAATTTCTACGGAGTCACCTAGTGCAG”, the binding signal was 4330 fluorescence intensity (a.u.).
